From PMC5553809

Target: Dps (UniProt P0ABT2)
Experiment: EMSA
Conditions: band-shift buffer, recombinant protein, probe letters rebuilt from the primers and the genome

Row | Sequence | binding result (positive control in all band shifts) | binding result (remained unbound in vitro)
1 | ATGCAGATCTTCTCGCTACTTTTCCTCTACACCGTCTTTATATATCGAATTATGCAAAAGCATATTTATTCCGAAAATTCCTGGCGAGCAGATAAATAAGAATTGTTCTTATCAATATATCTAACTCATTGAATCTTTATTAGTTTTGTTTTTCACGCTTGTTACCACTATTAGTGTGATAGGAACAGCCAGAATAGCGGAACACATAGCCGGTGCTATACTTAATCTCGTTAATTACTGGGACATAACATCTAGAGGA (double strand) [dps_short] | binds | –
2 | TTTGGCAGAGGTTAAGCGCTTGCTTTGCGCGCACGTTCGGGAACTGCATGACTTTTATGGTCCGGCAAAAGGGTACCGAATTGCACGTAAACACGTTTCCTGGTATCTCCAGGAACACGCTCCAAATGACCAGTTTCGGCGCACATTCAACGCCATTGAGGATGCCAGCGAACAGCTGGAGGCGTTGGAGGCATACTTCGAAAATTTTGCGTAAACAGAAATAAAGAGCTGACAGAACTATGTTCGAACAACGCGTAAATTCTGACGTACTGACCGTTTCTACCGTTAACTCTCAGGATCAGGTAACCCAAAAACCCCTGCGTGACTCGGTTAAACAGGCACTGAAGAACTATTTTGCTCAACTGAATGGTCAGGATGTGAATGACCTCTATGAGCTGGTAC (double strand) [fis_up] | – | no binding

For at least one entry, the source does not settle the construct or the ends of the probe. A negative result means that nothing was seen under these conditions.
